Measured values from the supplement of paper PMC4683952.
This is one part of the list. Rule as the data show it: active = 2 or more and inactive = the rest. Most values lie within the scatter of the assay; repeated measurements hardly agree.

System: Lgr5 (MarsCy1-Lgr5-EGFP, U2OS)
Test: cell-surface Lgr5 expression (SCi1 fluorescence, background-subtracted) relative to WT DMSO (fold of DMSO control); higher = more Lgr5 at the plasma membrane
Details: U2OS MarsCy1-Lgr5-EGFP stable; treatment time: overnight; library: ActiProbe-5K (TimTec); 25 µM

Row | Compound | cell-surface Lgr5 expression
1 | c1ccc(-n2nnnc2SCc2ccccn2)cc1 | inactive: 1.16
2 | Fc1ccc(-c2nc3sc(-c4ccc(F)cc4)nc3s2)cc1 | inactive: 0.872
3 | Nc1ncnc2[nH]c(SCCO)nc12 | inactive: 1.32
4 | CC(C)(C)c1cc(CSCCSCc2cc(C(C)(C)C)c(O)c(C(C)(C)C)c2)cc(C(C)(C)C)c1O | inactive: 0.975
5 | CC(=O)OCC1OC(n2cnc3c(O)ncnc32)C(OC(C)=O)C1OC(C)=O (stereo not drawn) | inactive: 1.12
6 | CCS(=O)(=O)c1ccsc1S(=O)(=O)CC | inactive: 1.15
7 | C=C1Oc2ccccc2C(O)=C1[N+](=O)[O-] | inactive: 1.3
8 | COC(=O)CSc1n[nH]c(=O)[nH]c1=O | inactive: 1.07
9 | O=[N+]([O-])c1ccc2nc(SSc3nc4ccc([N+](=O)[O-])cc4s3)sc2c1 | inactive: 1.58
10 | CN1C(=O)N(C)C2NC(=O)NC21 (stereo not drawn) | inactive: 1.28
11 | C=CC[C@H]1CC(Cc2ccccc2)=C[C@H](CC=C)N1.Cl | inactive: 1.03
12 | C#CCCOc1nc(N(C)C)nc(N(C)C)n1 | inactive: 0.95
13 | O=S(=O)(NCCSc1ccc(Cl)cc1)c1ccc2c(c1)OCCO2 | inactive: 1.1
14 | O=C([O-])c1nc(O)nc(O)n1.[K+] | inactive: 1.02
15 | CCn1cc(-c2n[nH]cc2Br)cn1 | inactive: 1.03
16 | C#CCSc1nnc2c(n1)[nH]c1ccccc12 | inactive: 0.861
17 | C=CCN(CC=C)S(=O)(=O)c1ccc(Cl)cc1 | inactive: 1.22
18 | Clc1ccccc1C1=Nn2c(nnc2-c2ccccn2)SC1 | inactive: 1.2
19 | O=C(Nc1nccs1)c1cccs1 | inactive: 0.889
20 | C(=N/N1CCN(c2ccccn2)CC1)/c1ccncc1 | inactive: 1
21 | OCc1cc2c(cc1Cl)OCO2 | inactive: 0.94
22 | COc1ccc(Oc2coc3cc(O)ccc3c2=O)cc1 | inactive: 1.26
23 | N#CC1(C#N)C(C(=O)C23CC4CC(CC(C4)C2)C3)C12CCCCC2 (stereo not drawn) | inactive: 1.13
24 | N#Cc1c(C#N)c(N)n(N)c1N | inactive: 1.05
25 | Cc1sc2nc3c(O)cc(=S)[nH]c3c(Br)c2c1C | inactive: 1.15
26 | O/N=C/Cc1[nH]c2ccccc2c1-c1ccccc1 | inactive: 1.05

Single values from the entries so far:
`O=C([O-])c1nc(O)nc(O)n1.[K+]` | cell-surface Lgr5 expression: inactive: 1.02
`C=CC[C@H]1CC(Cc2ccccc2)=C[C@H](CC=C)N1.Cl` | cell-surface Lgr5 expression: inactive: 1.03
`CN1C(=O)N(C)C2NC(=O)NC21` (stereo not drawn) | cell-surface Lgr5 expression: inactive: 1.28

Filtered by structure, the compounds so far with a thiophene ring, fused or not.
Row | Compound | cell-surface Lgr5 expression
6 | CCS(=O)(=O)c1ccsc1S(=O)(=O)CC | inactive: 1.15
19 | O=C(Nc1nccs1)c1cccs1 | inactive: 0.889
25 | Cc1sc2nc3c(O)cc(=S)[nH]c3c(Br)c2c1C | inactive: 1.15

The results go on.

Row | Compound | cell-surface Lgr5 expression
27 | Cc1cc(C)c(S(=O)(=O)NC(C)C)c(C)c1-n1cnnn1 | inactive: 1.32
28 | O=C1C2C3c4ccccc4C(c4ccccc43)C2C(=O)N1c1ccccn1 (stereo not drawn) | inactive: 1.35
29 | CCSCCOC(=O)C1=C(C)NC2=C(C(=O)CCC2)C1c1ccc(C)o1 (stereo not drawn) | inactive: 0.949
30 | O=C(/N=c1/nc2ccc(Br)cn2s1)c1ccco1 | active: 2.03
31 | O=C(O)c1nsnc1NCCO | inactive: 1.44
32 | Cc1[nH]c(=O)c(C(=O)O)c(C)c1[N+](=O)[O-] | inactive: 0.956
33 | COc1ccc(OC)c(S(=O)(=O)c2cc(OC)ccc2OC)c1 | inactive: 1.33
34 | CC1(C)C2CCC1(CS(=O)(=O)N1CCN(C(=O)c3ccco3)CC1)C(=O)C2 (stereo not drawn) | inactive: 0.985
35 | Cc1cc(C)n2nc(N)nc2n1 | inactive: 1.44
36 | CC(C)(C)C(=O)Nc1c[nH]c(=O)[nH]c1=O | inactive: 0.898
37 | O=[N+]([O-])c1cc2c(cc1/C=N\c1ccc(O)cc1)OCO2 | inactive: 1.15
38 | C(=N/c1nccs1)/c1cccc2c1OCOC2 | inactive: 1.14
39 | O=[N+]([O-])c1ccc(NNc2ccccc2)c([N+](=O)[O-])c1 | inactive: 0.457
40 | CCCCN(CCCC)S(=O)(=O)c1nc(C)c(Cl)c(C)c1C#N | inactive: 0.889
41 | N#Cc1c(-c2ccco2)cc(C2CC2)nc1N | inactive: 0.98
42 | Cc1cc(C)nc(SCc2nc3ccccc3nc2C)n1 | inactive: 1.06
43 | Fc1ccc(C2Nc3ccc(OC(F)(F)F)cc3C3C=CCC32)cc1 (stereo not drawn) | inactive: 0.815
44 | Nc1cc(S(=O)(=O)c2ccc(O)c(N)c2)ccc1O | inactive: 1.18
45 | CN1C(=O)C2(SCC(=O)N2c2ccccc2)c2ccccc21 (stereo not drawn) | inactive: 1.29
46 | CC(=O)Nc1nonc1-n1cccc1 | inactive: 0.916
47 | CC1(C)CC(=O)C/C(=N\NC(N)=S)C1 | inactive: 1.3
48 | Oc1cc2c(cc1C(c1ccc3c(c1)OCO3)N1CCOCC1)OCO2 (stereo not drawn) | inactive: 1.23
49 | CN(C)S(=O)(=O)c1ccc(-c2cn3cc(Cl)ccc3n2)cc1 | inactive: 1.28
50 | O=S(=O)(Cc1ccccc1)CC1CO1 (stereo not drawn) | inactive: 1.3
51 | Cc1cc(C(F)(F)F)nc(S)n1 | inactive: 1.37
52 | FC(F)(F)COc1ccc(-n2ccnc2)nn1 | inactive: 1.06

Row | Compound | cell-surface Lgr5 expression
53 | CCCNc1nc(Cl)nc(NCCC)n1 | inactive: 1.08
54 | CCOC(=O)c1scc2c1OCCO2 | inactive: 1.02
55 | N#CC1=C(N)SC(N)=C(C#N)C1c1ccc([N+](=O)[O-])s1 | inactive: 1.4
56 | OCCNc1nc(N2CCCCC2)nc(N2CCCCC2)n1 | inactive: 1.17
57 | N#CC1=C(N2CCCCC2)c2cc3c(n2C1=O)CCCC3 | inactive: 1.16
58 | C1(=NC(=O)C(/S1)=C1\CCCCC1)N1CC(C)OC(C1)C (stereo not drawn) | inactive: 1.01
59 | Fc1ccc2c(c1)C1OCCC1C(c1ccco1)N2 (stereo not drawn) | inactive: 1.33
60 | Cn1ncc([N+](=O)[O-])c1C(=O)O | inactive: 1.18
61 | NS(=O)(=O)c1ccc2c(c1)C1C=CCC1C(c1cccc3ccccc13)N2 (stereo not drawn) | inactive: 0.678
62 | N=c1[nH]c(-c2ccc3c(c2)OCCO3)cs1 | inactive: 1.15
63 | CC(C)(C)Sc1cc(C(=O)O)sc1C(=O)O | inactive: 1.03
64 | Cl.N#CC1=C(O)SC(N)=C2C(=N)n3cccc3C12 (stereo not drawn) | inactive: 1.22
65 | c1ccc(-c2nc(SCC3COc4ccccc4O3)oc2-c2ccccc2)cc1 (stereo not drawn) | inactive: 1.03
66 | CN(C)c1nc(N)nc(CSCCCCCCCCSCc2nc(N)nc(N(C)C)n2)n1 | inactive: 1.09
67 | CC1(C)NC(C)(C)/C(=N/O)C(=NO)/C1=N\O | inactive: 1.23
68 | C1=CCC(CN2CCN(Cc3ccco3)CC2)CC1 (stereo not drawn) | inactive: 1.33
69 | N=C1SCC(=O)N1c1nonc1NC=O | inactive: 1.09
70 | COc1ccc(-c2nc(-c3ccc(F)cc3)c[n+]3ccc4cc(OC)c(OC)cc4c23)cc1OC | inactive: 1.3
71 | O=C(NCCO)C12CC3CC(CC(C3)C1)C2 | inactive: 1.23
72 | Nn1c(SCc2ccccc2Br)nnc1C(F)(F)F | inactive: 0.967
73 | Cc1ccc2c(c1)C1C(=C(N)O2)C(N)=Cc2ccc(Br)cc21 (stereo not drawn) | inactive: 1.24
74 | Cn1c(-c2ccccc2)c(-c2ccccc2)[nH]c1=S | inactive: 0.836
75 | c1cc(COc2ccc3c(c2)OCO3)no1 | inactive: 1.12
76 | COc1nc(N/N=C/c2cc(OC)c(OC)c(OC)c2)nc(N2CCOCC2)n1 | inactive: 1.13
77 | O=S(=O)([O-])c1ccc(-c2nnc(-c3ccccn3)nc2-c2ccc(S(=O)(=O)[O-])o2)o1 | inactive: 1.22
78 | Nn1c(S)nnc1Cc1ccc2c(c1)OCO2 | inactive: 1.25

Row | Compound | cell-surface Lgr5 expression
79 | CCCCCCCCCCn1c(SCCC(C)C)nc2c1c(=O)[nH]c(=O)n2C | inactive: 1.1
80 | COCc1[nH]nc2c1C1(CCC3(CC1)OCCO3)C(C#N)=C(N)O2 | inactive: 1.16
81 | O=[N+]([O-])c1ccc(/C=N\Nc2nc3ccccc3s2)s1 | inactive: 1.36
82 | Cn1ncc([N+](=O)[O-])c1C(=O)NNC(=S)NC1CCCC1 | inactive: 1.19
83 | CCCCCCCCCCOC[N+](CC)(CC)c1ccccc1.[Cl-] | inactive: 1.48
84 | Cc1nc2c(o1)NC(N)=C(C#N)C21CCCCC1 | inactive: 1.23
85 | O=S1(=O)CCC(/N=C/c2ccc(-c3cccc(C(F)(F)F)c3)o2)C1 (stereo not drawn) | inactive: 1.17
86 | CS(=O)(=O)N1CCc2ccccc21 | inactive: 1.33
87 | CC(=O)[C@@]12OC1CC1C3CCC4=CC(=O)CCC4(C)C3CCC12C (stereo partly drawn) | inactive: 1.22
88 | c1ccc(-c2cc(-c3ccccc3)c3nncn3n2)cc1 | inactive: 1.26
89 | COc1ccc(OC)c(/N=C\c2cc(Br)cc(Br)c2O)c1 | inactive: 0.908
90 | O=C(O)CCN1CCN(CCO)CC1 | inactive: 1.09
91 | O=[N+]([O-])c1ccc(/C=N\c2ccc(Cl)c([N+](=O)[O-])c2)s1 | active: 2.64
92 | Cl.NC(N)=NN=C(/C=C\c1ccc([N+](=O)[O-])o1)/C=C\c1ccc([N+](=O)[O-])o1 | inactive: 0.428
93 | CCOC(=O)C1=C(N)n2c(s/c(=C/c3ccco3)c2=O)=C(C(=O)OCC)C1c1ccco1 (stereo not drawn) | inactive: 1.16
94 | Nc1nc(CSc2ncnc3[nH]cnc23)nc(Nc2ccccc2)n1 | inactive: 1.56
95 | Cc1nn(C)cc1C(=O)CC(=O)C(F)(F)F | inactive: 0.838
96 | Cc1nnc(NC(=O)C(C)n2nc(C(F)(F)F)c(Cl)c2C)s1 (stereo not drawn) | inactive: 1.25
97 | O=c1[nH]c2ccc(S(=O)(=O)N3CCOCC3)cc2[nH]1 | inactive: 1.1
98 | c1ccc2oc(SCCSc3nc4ccccc4o3)nc2c1 | inactive: 0.93
99 | O=S(=O)([O-])c1cc(O)c2c(O)c(/N=N\c3ccccc3)c(S(=O)(=O)[O-])cc2c1.[Na+].[Na+] | inactive: 1.29
100 | CN(C)CCCNS(=O)(=O)c1ccc(Cl)cc1 | inactive: 1.17
101 | CC1(C)CC(=O)C(C(C2=C(O)CC(C)(C)CC2=O)c2ccc([N+](=O)[O-])s2)C(=O)C1 (stereo not drawn) | inactive: 1.22
102 | Nc1nnc(-c2ccc(Br)o2)s1 | inactive: 0.918
103 | C=CCn1c(S)nnc1COc1ccccc1 | inactive: 1.1

Some of the entries so far, field by field.
CCS(=O)(=O)c1ccsc1S(=O)(=O)CC
  cell-surface Lgr5 expression: inactive: 1.15
C=C1Oc2ccccc2C(O)=C1[N+](=O)[O-]
  cell-surface Lgr5 expression: inactive: 1.3
